Measurements reported in the supplement of paper PMC11006884.
The list shows a part of the results, in another mix than the full data.

By UniProt entry, the sequences of proteins in these tests, tags left out. Where a name states a change or a piece, a line headed by the entry shows the natural chain unless it says otherwise.
UniProt P49327, whole entry, looked up: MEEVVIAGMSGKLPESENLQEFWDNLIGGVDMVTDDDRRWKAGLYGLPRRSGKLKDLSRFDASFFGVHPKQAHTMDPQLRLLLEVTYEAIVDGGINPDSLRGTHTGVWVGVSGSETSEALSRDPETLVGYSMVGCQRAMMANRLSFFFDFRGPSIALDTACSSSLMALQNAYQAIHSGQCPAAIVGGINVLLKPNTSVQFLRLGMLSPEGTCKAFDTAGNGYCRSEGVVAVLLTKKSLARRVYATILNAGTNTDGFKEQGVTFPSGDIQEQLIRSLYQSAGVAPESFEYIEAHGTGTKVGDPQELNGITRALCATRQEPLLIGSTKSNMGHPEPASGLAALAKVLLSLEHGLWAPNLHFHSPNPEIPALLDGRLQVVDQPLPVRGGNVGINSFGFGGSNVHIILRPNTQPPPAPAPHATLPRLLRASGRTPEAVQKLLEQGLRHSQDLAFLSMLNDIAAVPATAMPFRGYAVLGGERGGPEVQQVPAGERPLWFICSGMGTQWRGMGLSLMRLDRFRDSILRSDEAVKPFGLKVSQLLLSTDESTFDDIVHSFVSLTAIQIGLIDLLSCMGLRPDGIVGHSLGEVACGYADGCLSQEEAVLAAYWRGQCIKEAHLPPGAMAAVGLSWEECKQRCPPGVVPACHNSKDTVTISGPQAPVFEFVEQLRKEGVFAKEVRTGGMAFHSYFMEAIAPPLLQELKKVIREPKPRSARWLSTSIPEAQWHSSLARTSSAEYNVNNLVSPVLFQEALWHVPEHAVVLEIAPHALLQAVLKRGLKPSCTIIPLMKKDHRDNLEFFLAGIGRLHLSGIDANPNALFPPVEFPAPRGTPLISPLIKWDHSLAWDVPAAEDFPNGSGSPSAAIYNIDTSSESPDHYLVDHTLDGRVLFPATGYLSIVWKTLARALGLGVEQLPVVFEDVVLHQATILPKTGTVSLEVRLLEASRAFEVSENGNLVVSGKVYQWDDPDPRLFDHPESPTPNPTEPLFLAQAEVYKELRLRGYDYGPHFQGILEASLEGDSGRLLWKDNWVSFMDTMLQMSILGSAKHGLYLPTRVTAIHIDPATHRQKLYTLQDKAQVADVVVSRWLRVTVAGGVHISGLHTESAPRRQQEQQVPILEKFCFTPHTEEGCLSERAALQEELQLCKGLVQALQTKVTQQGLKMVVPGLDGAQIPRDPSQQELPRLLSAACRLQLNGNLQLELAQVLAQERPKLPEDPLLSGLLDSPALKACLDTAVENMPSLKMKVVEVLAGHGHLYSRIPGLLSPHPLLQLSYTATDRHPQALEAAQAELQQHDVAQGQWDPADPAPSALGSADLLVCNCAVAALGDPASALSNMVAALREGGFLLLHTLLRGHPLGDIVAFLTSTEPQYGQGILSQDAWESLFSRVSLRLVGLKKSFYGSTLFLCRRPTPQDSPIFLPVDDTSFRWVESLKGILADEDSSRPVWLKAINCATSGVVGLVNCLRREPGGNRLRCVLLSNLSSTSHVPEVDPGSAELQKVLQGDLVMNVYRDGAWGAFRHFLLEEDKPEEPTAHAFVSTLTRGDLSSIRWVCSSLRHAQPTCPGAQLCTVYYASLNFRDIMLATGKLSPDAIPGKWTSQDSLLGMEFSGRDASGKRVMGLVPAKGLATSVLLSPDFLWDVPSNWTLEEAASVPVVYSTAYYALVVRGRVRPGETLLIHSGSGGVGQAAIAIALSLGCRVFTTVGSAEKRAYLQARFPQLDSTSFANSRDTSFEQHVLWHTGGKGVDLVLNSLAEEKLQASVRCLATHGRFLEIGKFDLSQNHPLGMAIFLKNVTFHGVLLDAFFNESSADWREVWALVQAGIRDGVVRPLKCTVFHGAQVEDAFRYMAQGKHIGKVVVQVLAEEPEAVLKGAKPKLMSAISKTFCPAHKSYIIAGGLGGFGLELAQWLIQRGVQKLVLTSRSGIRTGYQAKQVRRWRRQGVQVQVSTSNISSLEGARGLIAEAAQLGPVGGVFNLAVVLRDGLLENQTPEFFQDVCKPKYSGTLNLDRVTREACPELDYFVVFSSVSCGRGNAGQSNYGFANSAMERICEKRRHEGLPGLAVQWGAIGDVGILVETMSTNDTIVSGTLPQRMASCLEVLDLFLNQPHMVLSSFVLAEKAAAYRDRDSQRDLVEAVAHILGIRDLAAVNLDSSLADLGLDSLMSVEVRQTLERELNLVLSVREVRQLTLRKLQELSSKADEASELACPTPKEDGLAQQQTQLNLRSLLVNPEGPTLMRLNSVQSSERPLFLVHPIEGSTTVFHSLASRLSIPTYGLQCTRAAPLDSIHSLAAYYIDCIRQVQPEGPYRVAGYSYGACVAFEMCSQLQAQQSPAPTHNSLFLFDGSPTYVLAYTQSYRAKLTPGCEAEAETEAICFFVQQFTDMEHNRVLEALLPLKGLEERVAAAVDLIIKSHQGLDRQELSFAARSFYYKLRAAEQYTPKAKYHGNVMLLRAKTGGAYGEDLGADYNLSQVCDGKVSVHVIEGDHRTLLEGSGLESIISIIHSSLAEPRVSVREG
UniProt P49792, whole entry, looked up: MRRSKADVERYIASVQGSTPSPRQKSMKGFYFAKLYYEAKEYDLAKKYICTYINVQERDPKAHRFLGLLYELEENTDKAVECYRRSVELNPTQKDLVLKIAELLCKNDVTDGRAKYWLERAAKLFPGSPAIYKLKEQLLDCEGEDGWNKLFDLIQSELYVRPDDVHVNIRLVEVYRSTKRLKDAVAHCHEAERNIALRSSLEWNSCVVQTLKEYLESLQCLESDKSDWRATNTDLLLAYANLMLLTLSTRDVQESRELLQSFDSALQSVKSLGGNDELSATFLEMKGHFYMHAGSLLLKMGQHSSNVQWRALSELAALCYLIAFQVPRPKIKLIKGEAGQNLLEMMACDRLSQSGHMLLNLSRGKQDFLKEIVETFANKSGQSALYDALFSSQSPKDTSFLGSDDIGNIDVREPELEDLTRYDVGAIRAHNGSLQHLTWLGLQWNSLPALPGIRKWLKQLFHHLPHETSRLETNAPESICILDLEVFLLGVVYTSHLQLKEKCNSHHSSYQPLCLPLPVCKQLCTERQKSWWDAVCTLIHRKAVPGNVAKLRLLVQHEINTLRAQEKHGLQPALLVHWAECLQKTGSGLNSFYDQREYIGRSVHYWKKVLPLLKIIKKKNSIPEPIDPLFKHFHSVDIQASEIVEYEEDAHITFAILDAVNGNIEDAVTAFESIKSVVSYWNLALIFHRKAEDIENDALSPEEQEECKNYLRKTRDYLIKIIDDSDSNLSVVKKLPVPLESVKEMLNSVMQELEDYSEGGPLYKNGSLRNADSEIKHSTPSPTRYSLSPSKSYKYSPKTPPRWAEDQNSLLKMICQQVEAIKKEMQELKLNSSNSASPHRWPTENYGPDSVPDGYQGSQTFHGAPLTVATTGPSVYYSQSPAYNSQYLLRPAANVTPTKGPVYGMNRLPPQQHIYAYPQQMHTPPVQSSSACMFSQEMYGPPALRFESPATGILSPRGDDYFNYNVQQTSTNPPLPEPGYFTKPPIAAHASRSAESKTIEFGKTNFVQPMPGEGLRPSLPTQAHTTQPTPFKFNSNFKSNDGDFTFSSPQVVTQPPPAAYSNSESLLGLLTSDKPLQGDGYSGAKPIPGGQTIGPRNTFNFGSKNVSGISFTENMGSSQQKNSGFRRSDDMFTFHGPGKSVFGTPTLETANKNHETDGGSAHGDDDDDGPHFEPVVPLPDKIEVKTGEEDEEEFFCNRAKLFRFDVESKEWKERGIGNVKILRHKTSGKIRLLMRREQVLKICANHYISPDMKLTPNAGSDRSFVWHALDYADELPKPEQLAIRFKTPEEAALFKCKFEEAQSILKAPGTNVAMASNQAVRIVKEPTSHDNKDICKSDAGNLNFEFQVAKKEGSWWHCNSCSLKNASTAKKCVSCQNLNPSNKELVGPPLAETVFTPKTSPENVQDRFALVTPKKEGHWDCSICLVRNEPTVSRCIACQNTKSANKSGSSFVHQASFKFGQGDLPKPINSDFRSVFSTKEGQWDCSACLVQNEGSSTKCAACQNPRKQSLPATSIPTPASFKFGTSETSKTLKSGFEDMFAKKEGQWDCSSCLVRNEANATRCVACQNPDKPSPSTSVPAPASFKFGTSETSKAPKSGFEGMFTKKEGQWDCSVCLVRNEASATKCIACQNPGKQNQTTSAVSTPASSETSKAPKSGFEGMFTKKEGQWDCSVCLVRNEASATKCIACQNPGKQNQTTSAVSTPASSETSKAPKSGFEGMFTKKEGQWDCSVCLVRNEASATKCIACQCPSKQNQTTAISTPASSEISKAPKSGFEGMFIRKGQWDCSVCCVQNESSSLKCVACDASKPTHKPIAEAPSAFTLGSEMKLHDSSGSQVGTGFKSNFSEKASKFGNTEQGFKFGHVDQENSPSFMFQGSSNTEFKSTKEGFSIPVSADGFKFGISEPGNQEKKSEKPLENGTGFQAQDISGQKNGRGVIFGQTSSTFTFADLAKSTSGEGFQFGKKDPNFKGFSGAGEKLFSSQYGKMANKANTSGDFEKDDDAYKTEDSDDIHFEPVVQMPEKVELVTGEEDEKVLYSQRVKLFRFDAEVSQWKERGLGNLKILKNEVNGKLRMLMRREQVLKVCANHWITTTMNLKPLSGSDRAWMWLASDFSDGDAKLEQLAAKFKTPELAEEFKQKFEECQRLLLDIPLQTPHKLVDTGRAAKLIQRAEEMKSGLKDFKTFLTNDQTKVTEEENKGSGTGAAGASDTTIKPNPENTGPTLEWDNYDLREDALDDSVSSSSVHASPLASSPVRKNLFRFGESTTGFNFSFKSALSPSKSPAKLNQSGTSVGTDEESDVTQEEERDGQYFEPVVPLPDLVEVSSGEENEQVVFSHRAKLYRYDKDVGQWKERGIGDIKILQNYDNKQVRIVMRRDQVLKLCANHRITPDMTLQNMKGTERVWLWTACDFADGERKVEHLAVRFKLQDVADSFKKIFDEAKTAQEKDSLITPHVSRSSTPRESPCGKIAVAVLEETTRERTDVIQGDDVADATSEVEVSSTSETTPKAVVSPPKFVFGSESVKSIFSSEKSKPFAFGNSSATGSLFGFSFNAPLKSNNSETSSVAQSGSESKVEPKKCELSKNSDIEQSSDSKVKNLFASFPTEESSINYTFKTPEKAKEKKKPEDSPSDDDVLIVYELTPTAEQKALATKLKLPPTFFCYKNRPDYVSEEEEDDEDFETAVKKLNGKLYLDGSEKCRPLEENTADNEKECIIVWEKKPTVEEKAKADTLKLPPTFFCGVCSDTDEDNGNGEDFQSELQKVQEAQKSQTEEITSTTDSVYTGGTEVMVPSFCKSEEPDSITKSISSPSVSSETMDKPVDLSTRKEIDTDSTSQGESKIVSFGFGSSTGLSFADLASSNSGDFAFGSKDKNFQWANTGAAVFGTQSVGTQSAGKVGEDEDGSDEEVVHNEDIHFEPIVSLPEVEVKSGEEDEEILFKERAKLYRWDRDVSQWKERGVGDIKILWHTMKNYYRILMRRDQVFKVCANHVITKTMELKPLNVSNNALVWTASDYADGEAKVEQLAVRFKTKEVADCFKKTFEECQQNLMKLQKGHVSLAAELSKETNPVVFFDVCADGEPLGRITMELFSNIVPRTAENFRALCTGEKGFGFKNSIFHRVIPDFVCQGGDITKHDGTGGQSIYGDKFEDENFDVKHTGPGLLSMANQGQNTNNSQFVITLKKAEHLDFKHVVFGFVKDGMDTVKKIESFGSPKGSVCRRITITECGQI
UniProt P43490: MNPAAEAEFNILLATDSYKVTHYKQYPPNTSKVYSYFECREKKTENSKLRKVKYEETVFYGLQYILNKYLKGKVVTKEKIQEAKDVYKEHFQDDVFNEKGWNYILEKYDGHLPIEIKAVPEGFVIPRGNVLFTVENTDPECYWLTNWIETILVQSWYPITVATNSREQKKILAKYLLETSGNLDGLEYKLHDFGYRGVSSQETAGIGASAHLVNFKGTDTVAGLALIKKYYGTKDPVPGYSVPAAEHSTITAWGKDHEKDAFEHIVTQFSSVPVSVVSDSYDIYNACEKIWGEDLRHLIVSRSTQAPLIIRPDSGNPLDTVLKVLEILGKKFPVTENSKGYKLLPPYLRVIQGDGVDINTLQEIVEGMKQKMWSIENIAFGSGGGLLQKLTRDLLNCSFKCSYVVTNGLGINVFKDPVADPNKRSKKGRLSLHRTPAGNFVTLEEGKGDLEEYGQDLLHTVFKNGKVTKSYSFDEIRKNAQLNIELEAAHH
UniProt P45880: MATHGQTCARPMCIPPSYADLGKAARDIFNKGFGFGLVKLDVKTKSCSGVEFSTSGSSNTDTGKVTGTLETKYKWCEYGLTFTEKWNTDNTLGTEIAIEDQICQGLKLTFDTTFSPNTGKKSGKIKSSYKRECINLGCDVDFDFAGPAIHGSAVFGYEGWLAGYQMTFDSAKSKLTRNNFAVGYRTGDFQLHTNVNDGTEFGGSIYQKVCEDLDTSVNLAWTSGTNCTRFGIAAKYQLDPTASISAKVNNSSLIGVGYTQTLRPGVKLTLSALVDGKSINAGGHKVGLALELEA

Compound: COC(=O)C#Cc1ccccc1 [methyl 3-phenylpropiolate]
Experiment: log2 ratio of iodoacetamide-alkyne labeling of the cysteine site, DMSO over compound (competition); higher = stronger covalent engagement of the cysteine by the compound, active = 1 or more
Conditions: 500 µM; treatment time 1 h; system: HEK293T cell lysate
Method in brief: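 Electrophile (500 µM) or vehicle was added to HEK293T lysate (2 mg/mL) for 1 h at ambient temperature before iodoacetamide alkyne labelling (1 h) and click coupling to sCIP-TMT reagents. After pooling, overnight trypsin digestion at 37 °C, streptavidin enrichment and acid elution, peptides were measured by Orbitrap Eclipse LC-MS/MS with FAIMS and quantified in FragPipe. Each cysteine's log2 competition ratio compares mean control-channel with mean compound-channel reporter intensity, control over compound. Data came from duplicate channels across three replicates, excluding cysteines quantified in only one replicate.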

log2 ratio of iodoacetamide-alkyne labeling, inactive:
CCT4 C379 (UniProt P50991) 0.117
GSS C294 (UniProt P48637) 0.15
RANGAP1 C82 (UniProt P46060) 0.944
UniProt P49591_C117 0.0247
FXR1 C77 (UniProt P51114) 0.0364
FASN C1118 (UniProt P49327) 0.203
GMPS C4 (UniProt P49915) 0.377
MSH2 C843 (UniProt P43246) 0.362
MKI67 C2206 (UniProt P46013) 0.603
FASN C1992 (UniProt P49327) 0.0894
IQGAP1 C781 (UniProt P46940) 0.821
RANBP2 C2791 (UniProt P49792) 0.0707
RANBP2 C220 (UniProt P49792) 0.364
NAMPT C401 (UniProt P43490) 0.0773
IRAK1 C620 (UniProt P51617) 0.455
LIMS1 C138 (UniProt P48059) 0.0987
SEPHS1 C71 (UniProt P49903) 0.038
NT5C2 C181 (UniProt P49902) 0.0722
MCM2 C522 (UniProt P49736) -0.16
MKI67 C226 (UniProt P46013) 0.319
NAMPT C397 (UniProt P43490) 0.281
MAP1B C2065 (UniProt P46821) 0.623
MKI67 C1251 (UniProt P46013) 0.262
NUP153 C585 (UniProt P49790) 0.181
RPS5 C172 (UniProt P46782) 0.115
RANBP2 C82 (UniProt P49792) 0.564
CCT5 C407 (UniProt P48643) 0.0369
CCT5 C302 (UniProt P48643) 0.0322
TSC2 C414 (UniProt P49815) 0.0259
PEX5 C11 (UniProt P50542) 0.204
NDUFV1 C286 (UniProt P49821) 0.31
CAPZB C206 (UniProt P47756) 0.316
UniProt P46734_C29 0.516
PSMD8 C112 (UniProt P48556) 0.231
VDAC2 C8 (UniProt P45880) 0.376
UniProt P49840_C262 0.12

Fetched one by one from the list above, two records:
log2 ratio of iodoacetamide-alkyne labeling, inactive:
NAMPT C401 (UniProt P43490) 0.0773
FASN C1118 (UniProt P49327) 0.203
